From PubChem BioAssay record AID1080 (Emory University Molecular Libraries Screening Center, 2008).

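A cell line overexpressing EP4 prostanoid receptors, stimulated with a low (about EC15) PGE2 dose; cAMP read by HTRF FRET after a short room-temperature incubation. Compounds were tested at 20 µM final. A low (about EC15) PGE2 dose was present. Percent cAMP induction as a fraction of the 1 µM PGE2 response, averaged over three replicates; a higher value means more cAMP.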

Values are in %. Common to all entries: measured here: EP4 receptor counter-screen. Part of the compounds only, not a random draw; the main read-out is not listed here.

structure	tested on / at	cAMP induction (%)
C=CCSc1nc2ccccc2n1S(=O)(=O)c1ccc(C)cc1	percent of 1 uM PGE2 response; plus low (about EC15) PGE2 agonist	-1.1
CCOC(=O)C1=C(C)NC(C)=C(C(=O)OC)C1c1cccc(Cl)c1Cl (stereo unspecified)	percent of 1 uM PGE2 response; plus low (about EC15) PGE2 agonist	15.75
Cc1nccc2[nH]c(=O)c(C(=O)NC3CCCCC3C)cc12 (stereo unspecified)	percent of 1 uM PGE2 response; plus low (about EC15) PGE2 agonist	0.1367
Cc1ccc(O)c(N=Cc2cc(Cc3ccccc3)cc([N+](=O)[O-])c2O)c1	percent of 1 uM PGE2 response; plus low (about EC15) PGE2 agonist	-9.957
CC(C)c1nc(N2CCN(C(=O)c3ccccc3)CC2)c(C#N)c2c1COC(C)(C)C2	percent of 1 uM PGE2 response; plus low (about EC15) PGE2 agonist	-12
C=CCn1c(=O)c2c(nc(-c3ccc(S(=O)(=O)O)cc3)n2C)n(C)c1=O	percent of 1 uM PGE2 response; plus low (about EC15) PGE2 agonist	10.19
CCOC(=O)Cc1csc(NC(=O)c2cc(=O)c3ccccc3o2)n1	percent of 1 uM PGE2 response; plus low (about EC15) PGE2 agonist	1.903
CCn1c2ccccc2c2cc([N+](=O)[O-])ccc21	percent of 1 uM PGE2 response; plus low (about EC15) PGE2 agonist	13.81
O=C(O)COc1ccc(/C=C/c2ccc3cccc([N+](=O)[O-])c3n2)cc1	percent of 1 uM PGE2 response; plus low (about EC15) PGE2 agonist	-5.66
Cc1ccc(-c2nn(-c3ccccc3)cc2CN(Cc2ccccc2)C(=O)c2ccco2)o1	percent of 1 uM PGE2 response; plus low (about EC15) PGE2 agonist	-14.45
CC(C)(Oc1ccc(Cl)cc1)C(=O)N(Cc1ccccc1)c1ccccn1	percent of 1 uM PGE2 response; plus low (about EC15) PGE2 agonist	-3.17
CCCOP(=O)(OCCC)C(Nc1cccc(C(F)(F)F)c1)c1ccc(C)cc1 (stereo unspecified)	percent of 1 uM PGE2 response; plus low (about EC15) PGE2 agonist	3.427
COC(=O)c1c(NC(=O)c2ccccc2N(C)S(=O)(=O)c2ccccc2)sc2c1CCCC2	percent of 1 uM PGE2 response; plus low (about EC15) PGE2 agonist	-5.797
CC1=CC2C(C(C)C)CCC(C)(O)C2CC1 (stereo unspecified)	percent of 1 uM PGE2 response; plus low (about EC15) PGE2 agonist	3.93
COc1ccc(Nc2nc(-c3cc4cccc(OC)c4oc3=O)cs2)cc1	percent of 1 uM PGE2 response; plus low (about EC15) PGE2 agonist	-12.1
CC(=O)c1ccc(-n2c(C)ccc2-c2ccccc2)cc1	percent of 1 uM PGE2 response; plus low (about EC15) PGE2 agonist	7.263
CCc1ccc2[nH]c(=O)c(C(c3nnnn3CC3CCCO3)N3CCCc4ccccc43)cc2c1 (stereo unspecified)	percent of 1 uM PGE2 response; plus low (about EC15) PGE2 agonist	-8.213
Cc1ccc(N(C(=O)c2snc(C(N)=O)c2N)C(C(=O)NCCC(C)C)c2ccco2)cc1 (stereo unspecified)	percent of 1 uM PGE2 response; plus low (about EC15) PGE2 agonist	2.47
CCCCCCn1c(SCC(C)C)nc2c1c(=O)[nH]c(=O)n2C	percent of 1 uM PGE2 response; plus low (about EC15) PGE2 agonist	2.44
O=C(c1cc(-c2ccccn2)nc2ccc(Br)cc12)N1CCc2ccccc2C1	percent of 1 uM PGE2 response; plus low (about EC15) PGE2 agonist	44.06
Nc1c(C(=O)Nc2ccccc2F)sc2nc(Cc3ccccc3)cc(C(F)(F)F)c12	percent of 1 uM PGE2 response; plus low (about EC15) PGE2 agonist	29.81
O=c1c2ccccc2nc(N2CCCC2)n1-c1ccc(Cl)cc1	-	5.013
CCCCc1nc(SCCOC)c2c(=O)n(C)c(=O)n(C)c2n1	percent of 1 uM PGE2 response; plus low (about EC15) PGE2 agonist	0.4033
Cn1c(=O)c2c(SC3CCCC3)nc(C3CC3)nc2n(C)c1=O	percent of 1 uM PGE2 response; plus low (about EC15) PGE2 agonist	-14.96
CCOC(=O)CSc1ncnc2c1sc1nc(N3CCOCC3)c3c(c12)CCCC3	percent of 1 uM PGE2 response; plus low (about EC15) PGE2 agonist	4.03
CCC1Oc2ccc(C)cc2N(Cc2cccc(C)c2)C1=O (stereo unspecified)	percent of 1 uM PGE2 response; plus low (about EC15) PGE2 agonist	8.867
CCOc1ccccc1C(=O)Nc1ccsc1C(=O)OC	percent of 1 uM PGE2 response; plus low (about EC15) PGE2 agonist	6.443
CCOC(=O)c1c(C2COc3ccccc3O2)csc1N (stereo unspecified)	percent of 1 uM PGE2 response; plus low (about EC15) PGE2 agonist	13.01
O=C(Nc1ccccc1Sc1ccccc1)c1ccc(F)cc1	percent of 1 uM PGE2 response; plus low (about EC15) PGE2 agonist	-9.633
c1ccc(CCc2ccccc2-c2nc(-c3cccnc3)no2)cc1	percent of 1 uM PGE2 response; plus low (about EC15) PGE2 agonist	-2.657
CN(C)c1ncc(S(=O)(=O)c2ccc(Cl)cc2)c(-c2ccccc2)n1	percent of 1 uM PGE2 response; plus low (about EC15) PGE2 agonist	-0.5
Cc1cc(Br)c2nc3c(c(C(=O)O)c2c1)CCCCC3	percent of 1 uM PGE2 response; plus low (about EC15) PGE2 agonist	70.6
Nc1[nH]n2c(=O)c3c(nc2c1N=Nc1ccccc1)CCCC3	percent of 1 uM PGE2 response; plus low (about EC15) PGE2 agonist	15

Repeated from the top, 4 entries:

structure,tested on / at,cAMP induction (%)
C=CCSc1nc2ccccc2n1S(=O)(=O)c1ccc(C)cc1,percent of 1 uM PGE2 response; plus low (about EC15) PGE2 agonist,-1.1
CCOC(=O)C1=C(C)NC(C)=C(C(=O)OC)C1c1cccc(Cl)c1Cl (stereo unspecified),percent of 1 uM PGE2 response; plus low (about EC15) PGE2 agonist,15.75
Cc1nccc2[nH]c(=O)c(C(=O)NC3CCCCC3C)cc12 (stereo unspecified),percent of 1 uM PGE2 response; plus low (about EC15) PGE2 agonist,0.1367
Cc1ccc(O)c(N=Cc2cc(Cc3ccccc3)cc([N+](=O)[O-])c2O)c1,percent of 1 uM PGE2 response; plus low (about EC15) PGE2 agonist,-9.957